# Earlier results in US20060233895A1, “Herbal remedy for treating Lyme disease” (priority 2005, published 2006).
# At least one structure is not confirmed: it was looked up by name or label, or the drawing left a doubt.
# Test system: Borrelia burgdorferi
# Details: single dose given within 72 hours after being bitten by an infected tick
structure (smiles),measurement,value
C[C@H]1c2cccc(O)c2C(=O)C2=C(O)[C@]3(O)C(=O)C(C(N)=O)=C(O)[C@@H](N(C)C)[C@@H]3[C@@H](O)[C@@H]21 [doxycycline],reduction of the chances of developing Lyme disease,≤ 87%
